{
  "sequences": {"note": "The chains behind the UniProt entries cited, without tags or fusion partners. Where a name states a change or a piece, a line headed by the entry shows the natural chain unless it says otherwise.", "UniProt Q9UNA4": "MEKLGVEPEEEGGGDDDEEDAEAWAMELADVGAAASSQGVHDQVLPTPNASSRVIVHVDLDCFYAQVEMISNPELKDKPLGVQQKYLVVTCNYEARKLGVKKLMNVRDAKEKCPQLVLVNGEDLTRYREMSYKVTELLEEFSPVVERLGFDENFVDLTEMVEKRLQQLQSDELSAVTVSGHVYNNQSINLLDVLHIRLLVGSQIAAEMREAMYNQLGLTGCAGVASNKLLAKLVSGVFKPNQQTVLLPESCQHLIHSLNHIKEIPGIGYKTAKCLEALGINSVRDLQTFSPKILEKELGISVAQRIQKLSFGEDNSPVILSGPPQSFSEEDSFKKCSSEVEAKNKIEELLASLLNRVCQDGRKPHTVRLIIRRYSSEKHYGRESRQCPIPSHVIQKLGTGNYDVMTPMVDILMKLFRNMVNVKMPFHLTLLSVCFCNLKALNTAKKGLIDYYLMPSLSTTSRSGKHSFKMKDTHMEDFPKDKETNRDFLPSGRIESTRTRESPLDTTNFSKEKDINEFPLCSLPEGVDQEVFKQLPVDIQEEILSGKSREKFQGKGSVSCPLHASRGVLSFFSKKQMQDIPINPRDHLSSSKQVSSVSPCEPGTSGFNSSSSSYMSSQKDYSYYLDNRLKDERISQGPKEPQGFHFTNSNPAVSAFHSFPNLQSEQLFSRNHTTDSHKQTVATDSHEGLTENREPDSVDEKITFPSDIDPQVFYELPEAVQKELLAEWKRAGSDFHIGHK"},
  "source": "PubChem BioAssay AID588590",
  "about": "(National Center for Advancing Translational Sciences (NCATS), 2011)",
  "note": "Out of some 390,000 compounds screened, about 4,000 (1%) were called active. The inconclusive results got no clear call from the source; some entries with a clear call stand among them for comparison. Calls come from the whole dose curve; as a rule, active = well fitted inhibition curve with a large enough effect; inconclusive = small, poorly fitted or top-dose-only effect, or another doubt; inactive = no such curve, though single readings can be large or run the other way. A potency beside an inconclusive call is a rough fit, not a confirmed value. Potency is the fitted concentration of half-maximal effect.",
  "data": [
    {"molecular_target": "DNA polymerase iota (Homo sapiens) (UniProt Q9UNA4)", "assay": "qHTS for Inhibitors of Polymerase Iota", "settings": "Pol iota fluorescent replication assay, 10 min; series mostly up to 115 µM; activity, negative = inhibition: at the top concentration", "summary_of_the_method": "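Fluorescent replication assay read twice, at 0 min and 10 min after adding 50 nM (final) substrate. Enzyme (10 nM) and compounds were first incubated 15 min at room temperature; enzyme-free buffer wells were negative controls.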", "values": [
      {"compound": "O=c1c(-c2ccco2)[n+]([O-])c2ccccc2n1OCc1ccccc1", "Potency": "inconclusive: 14.1 µM [inhibitor, full curve, poor fit]"},
      {"compound": "CC(c1nc2ccccc2c(=O)[nH]1)N1CCN(C)CC1", "note": "(stereo unspecified)", "Potency": "inconclusive: 8.91 µM [inhibitor, single point]"},
      {"compound": "Cc1ccc(C2C(C#N)=C(N)Oc3c2c(=O)n(C)c(=O)n3C)cc1", "note": "(stereo unspecified)", "Potency": "inconclusive: 20 µM [inhibitor, full curve, poor fit]"},
      {"compound": "Cc1cc(=O)oc2c(C)c(OC(C)C(=O)NC(Cc3c[nH]c4ccc(O)cc34)C(=O)O)ccc12", "note": "(stereo unspecified)", "Potency": "inconclusive: 39.8 µM [inhibitor, partial curve, poor fit]"},
      {"compound": "COc1ccc(C(=O)Nc2ccccc2C(=O)O)cc1Cl", "activity, negative = inhibition": "inactive: -10.3%"},
      {"compound": "Cc1ccc(Cn2cccc2C2=NC(C)(C)CO2)cc1", "activity, negative = inhibition": "inactive: 2.61%"},
      {"compound": "Cc1ccc(OCC(=O)NCC2(N3CCN(C)CC3)CCCCC2)cc1C", "activity, negative = inhibition": "inactive: 3.9%"},
      {"compound": "COc1cc2nc(SCC(=O)NCc3ccco3)n(Cc3ccc(Cl)cc3)c(=O)c2cc1OC", "Potency": "inconclusive: 89.1 µM [inhibitor, single point]"},
      {"compound": "CN(C)c1cccc(C(=O)N/N=C/c2ccccc2F)c1", "activity, negative = inhibition": "inactive: 20.6%"},
      {"compound": "Cc1cccn2c(=O)c3cc(C(=O)NC(C)c4ccccc4)c(=N)n(CCCn4ccnc4)c3nc12", "note": "(stereo unspecified)", "Potency": "inconclusive: 28.2 µM [inhibitor, single point]"},
      {"compound": "COc1ccc(OC)c(/C=N/NC(=O)c2cc3c(OC)c(OC)ccc3[nH]2)c1", "Potency": "inconclusive: 39.8 µM [inhibitor, single point]"},
      {"compound": "CCOC(=O)CN1CC23C=CC(O2)C(C(=O)O)C3C1=O", "note": "(stereo unspecified)", "Potency": "inconclusive: 79.4 µM [inhibitor, single point]"},
      {"compound": "COc1ccc(C=O)c2[nH]c3c(Cl)ncnc3c12", "Potency": "inconclusive: 44.7 µM [inhibitor, partial curve]"},
      {"compound": "Nc1nncn1C(=O)CCCOc1ccc(Cl)cc1Cl", "Potency": "inconclusive: 22.4 µM [inhibitor, single point]"},
      {"compound": "Cc1ccc(NC(=O)NNC(=O)c2cc3ccccc3cc2O)cc1C", "Potency": "inconclusive: 89.1 µM [inhibitor, single point]"},
      {"compound": "CC1(C)CC(=O)C2=C(C1)Nc1cc3c(cc1C2c1ccc(F)cc1)OCO3", "note": "(stereo unspecified)", "Potency": "inconclusive: 39.8 µM [inhibitor, single point]"},
      {"compound": "Nc1ccc(OC(=O)Nc2ccc(O)cc2)cc1", "Potency": "active: 20 µM"},
      {"compound": "CC(C)CCn1c(Br)nc2c1c(=O)n(CC(N)=O)c(=O)n2C", "Potency": "inconclusive: 89.1 µM [inhibitor, single point]"},
      {"compound": "CCC(CO)Oc1cc(NCc2ccccc2Cl)c2ncn(C(C)C)c2c1", "note": "(stereo unspecified)", "Potency": "inconclusive: 8.91 µM [inhibitor, single point]"},
      {"compound": "COc1ccccc1C(=O)NC(=S)Nc1ccc(N2CCCC2)cc1", "Potency": "inconclusive: 100 µM [inhibitor, single point]"},
      {"compound": "CCCOc1ccc(C2C(C(=O)c3ccc(C)o3)=C(O)C(=O)N2CCCn2ccnc2)cc1", "note": "(stereo unspecified)", "Potency": "inconclusive: 39.8 µM [inhibitor, partial curve, poor fit]"},
      {"compound": "Oc1ccccc1Oc1ncc(Br)c(Cl)n1", "Potency": "active: 50.1 µM"},
      {"compound": "Cc1ccc2nc(N3C(=O)C(O)=C(C(=O)c4ccco4)C3c3ccc(C)o3)sc2c1", "note": "(stereo unspecified)", "Potency": "inconclusive: 12.6 µM [inhibitor, full curve, poor fit]"},
      {"compound": "CCc1ccc(-c2nc3ccc(Br)cc3c(C(=O)O)c2C)s1", "Potency": "inconclusive: 56.2 µM [inhibitor, partial curve, poor fit]"},
      {"compound": "CCc1cccc(C)c1NC(=O)c1cccc(N(C)C)c1", "activity, negative = inhibition": "inactive: -3.76%"},
      {"compound": "COc1cc(/C=C/C(=O)c2ccc(Cl)s2)cc(OC)c1O", "Potency": "inconclusive: 20 µM [inhibitor, partial curve, poor fit]"},
      {"compound": "O=C(NC(=S)Nc1cc(C(F)(F)F)ccc1Cl)c1ccccc1", "Potency": "inconclusive: 44.7 µM [inhibitor, full curve, poor fit]"},
      {"compound": "CC12CCC(c3c(C(=O)O)nn(-c4ccccc4)c31)C2(C)C", "note": "(stereo unspecified)", "Potency": "inconclusive: 100 µM [inhibitor, single point]"},
      {"compound": "Cc1nn(-c2ccccc2)c(C)c1/C=N/NC(=O)c1cc(-c2cccs2)[nH]n1", "Potency": "inconclusive: 35.5 µM [inhibitor, full curve, poor fit]"},
      {"compound": "O=c1[nH]c2c(-c3nc(-c4ccc(Cl)cc4)cs3)c(O)cn2c2ccccc12", "activity, negative = inhibition": "inactive: -26.5%"},
      {"compound": "CCc1nnc(NC(=O)c2cc(=O)c3cc(C)c(C)cc3o2)s1", "activity, negative = inhibition": "inactive: 2.45%"},
      {"compound": "O=S(=O)(Nc1ccc(Cl)cc1NS(=O)(=O)c1ccccc1)c1ccccc1", "Potency": "inconclusive: 89.1 µM [inhibitor, single point]"},
      {"compound": "COP(=O)(OC)c1ccc(NCc2cc(O)ccc2O)cc1", "Potency": "active: 10 µM"},
      {"compound": "N#CC1=C(N)NC(=S)C(C(N)=O)C1c1ccc([N+](=O)[O-])cc1", "note": "(stereo unspecified)", "Potency": "inconclusive: 25.1 µM [inhibitor, single point]"},
      {"compound": "c1ccc(CSc2nnc(-c3cccs3)o2)cc1", "Potency": "inconclusive: 89.1 µM [inhibitor, single point]"},
      {"compound": "O=C(C[n+]1c2ccccc2cc2ccccc21)c1ccc(F)cc1", "activity, negative = inhibition": "inactive: 56.7%"},
      {"compound": "O=C(COC(=O)c1cc(-c2ccccn2)nc2ccccc12)Nc1ncc(C(F)(F)F)cc1Cl", "Potency": "inconclusive: 39.8 µM [inhibitor, single point]"},
      {"compound": "Cc1ccc([N+](=O)[O-])cc1N=C1C(=O)Nc2ccccc21", "Potency": "inconclusive: 50.1 µM [inhibitor, partial curve, poor fit]"},
      {"compound": "CCOc1ccc(-c2nc(SC(C(C)=O)C(=O)N(C)C)c3c(=O)n(C)c(=O)n(C)c3n2)cc1", "note": "(stereo unspecified)", "activity, negative = inhibition": "inactive: 6.68%"},
      {"compound": "Cc1noc(/C=C/N(C)C)c1S(=O)(=O)N1CCC(C(=O)Nc2ccc(Cl)cc2)CC1", "Potency": "inconclusive: 3.55 µM [inhibitor, full curve, poor fit]"},
      {"compound": "O=C(COC(=O)C12CC3CC(CC(Br)(C3)C1)C2)NCc1ccco1", "activity, negative = inhibition": "inactive: 2.96%"},
      {"compound": "Cc1nnc(SCc2ccc(CSc3nnc(C)c(=O)[nH]3)cc2)[nH]c1=O", "Potency": "inconclusive: 56.2 µM [inhibitor, partial curve, poor fit]"},
      {"compound": "Cc1ccc2cc3cc(C(=O)Nc4ccc(F)cc4Cl)oc3nc2c1", "activity, negative = inhibition": "inactive: -15.5%"},
      {"compound": "Cn1c(SCc2ccc(F)cc2)nc2ccc(C(=O)NCc3ccc(F)cc3)cc21", "Potency": "inconclusive: 79.4 µM [inhibitor, single point]"},
      {"compound": "C#CCOCCOCCOCCNc1nc(N2CCOCC2)nc(N2CCN(C(=O)[C@H](C)n3cc(CCCN=C(N)N)nn3)CC2)n1", "Potency": "inconclusive: 15.8 µM [inhibitor, partial curve, poor fit]"},
      {"compound": "CN(C)c1c(Cl)cc(/C=C2\\C=Cc3ccccc32)cc1Cl", "activity, negative = inhibition": "inactive: 0.638%"},
      {"compound": "O=C(OCc1nnc(-c2ccccc2)o1)c1cc2ccccc2cc1O", "activity, negative = inhibition": "inactive: -1.94%"},
      {"compound": "Cc1ccc(NC(=O)c2ccc(NCCCN3CCC(C)CC3)c([N+](=O)[O-])c2)c(C)c1", "Potency": "inconclusive: 28.2 µM [inhibitor, partial curve]"},
      {"compound": "Cc1[nH]c2ccccc2c1N=Nc1ccccc1C(=O)O", "Potency": "inconclusive: 35.5 µM [inhibitor, full curve]"},
      {"compound": "O=C(CNS(=O)(=O)c1cccc2nonc12)NCc1ccc(F)cc1", "activity, negative = inhibition": "inactive: 22.9%"},
      {"compound": "Cc1ccc(CN(C)C(=O)c2cc(Br)c(Br)s2)o1", "Potency": "inconclusive: 15.8 µM [inhibitor, full curve]"},
      {"compound": "Cc1cc(=O)[nH]c(SCc2cn3ccccc3n2)n1", "Potency": "inconclusive: 39.8 µM [inhibitor, single point]"},
      {"compound": "COc1ccc(Nc2nc(C)cc(C)c2C#N)c(OC)c1", "Potency": "inconclusive: 100 µM [inhibitor, single point]"},
      {"compound": "Cc1cccc(C)c1NC(=O)CN1C(=O)S/C(=C\\c2cccn2-c2cccc(C(=O)O)c2)C1=O", "Potency": "inconclusive: 17.8 µM [inhibitor, partial curve, poor fit]"},
      {"compound": "Cc1ccccc1NC(=O)CSc1nnc(-c2ccccc2)n1-c1ccccc1", "Potency": "inconclusive: 15.8 µM [inhibitor, partial curve, poor fit]"},
      {"compound": "CCCSc1ccc([C@H]2N[C@@](C)(C(=O)OC)[C@H]3C(=O)N(C)C(=O)[C@@H]23)cc1OC", "Potency": "inconclusive: 0.631 µM [inhibitor, full curve, poor fit]"},
      {"compound": "O=C(CSc1nnc(-c2cnccn2)n1Cc1ccco1)c1ccc(Cl)cc1", "Potency": "inconclusive: 22.4 µM [inhibitor, partial curve, poor fit]"},
      {"compound": "CC(=O)c1cccc(Nc2nc(N3CCOCC3)nc(N3CCOCC3)n2)c1", "Potency": "inconclusive: 39.8 µM [inhibitor, single point]"},
      {"compound": "CC(=O)c1cccc(NC(=O)C(C)OC(=O)c2ccc3ncsc3c2)c1", "note": "(stereo unspecified)", "Potency": "inconclusive: 12.6 µM [inhibitor, partial curve, poor fit]"},
      {"compound": "CCC[C@H]1CC(=O)C=C(c2ccc(OC)cc2)ON1C(=O)OC(C)(C)C", "Potency": "inconclusive: 28.2 µM [inhibitor, partial curve, poor fit]"},
      {"compound": "COc1ccc(Cl)cc1NC(=O)Cn1ccn(Cc2ccc(C)cc2)c(=O)c1=O", "activity, negative = inhibition": "inactive: 8.86%"},
      {"compound": "COc1ccc(-c2cn(-c3ccccc3)c3[n+]2CCS3)cc1", "Potency": "inactive"},
      {"compound": "O=C(O)c1ccc(CSc2nc3ccccc3o2)cc1", "Potency": "inconclusive: 2.82 µM [inhibitor, partial curve, poor fit]"},
      {"compound": "CC(=O)Nc1ccc(NC(=O)c2c(C)nc3ccccn23)cc1", "Potency": "inconclusive: 79.4 µM [inhibitor, partial curve, poor fit]"},
      {"compound": "C=CCn1c(CNC(=O)c2cccs2)nnc1SCC(=O)Nc1ccc(C(=O)O)cc1", "activity, negative = inhibition": "inactive: 30.7%"},
      {"compound": "O=c1[nH]c(-c2ccccc2)nc(CN2CCCCC2)c1O", "Potency": "inconclusive: 63.1 µM [inhibitor, partial curve, poor fit]"}
    ]}
  ]
}
